Measured values: PMC11075218
No constants are given. Whether binding was seen depends on the method and setting. In cells and extracts the contact can be indirect. Some binding calls cover weakened binding; strength is not graded here.

Amino acid sequences for entries named in this document (tags omitted).
UniProt P61088: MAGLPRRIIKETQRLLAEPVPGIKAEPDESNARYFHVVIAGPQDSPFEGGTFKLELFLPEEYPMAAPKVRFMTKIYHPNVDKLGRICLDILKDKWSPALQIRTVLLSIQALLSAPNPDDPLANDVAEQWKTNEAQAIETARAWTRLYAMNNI
UniProt O15169: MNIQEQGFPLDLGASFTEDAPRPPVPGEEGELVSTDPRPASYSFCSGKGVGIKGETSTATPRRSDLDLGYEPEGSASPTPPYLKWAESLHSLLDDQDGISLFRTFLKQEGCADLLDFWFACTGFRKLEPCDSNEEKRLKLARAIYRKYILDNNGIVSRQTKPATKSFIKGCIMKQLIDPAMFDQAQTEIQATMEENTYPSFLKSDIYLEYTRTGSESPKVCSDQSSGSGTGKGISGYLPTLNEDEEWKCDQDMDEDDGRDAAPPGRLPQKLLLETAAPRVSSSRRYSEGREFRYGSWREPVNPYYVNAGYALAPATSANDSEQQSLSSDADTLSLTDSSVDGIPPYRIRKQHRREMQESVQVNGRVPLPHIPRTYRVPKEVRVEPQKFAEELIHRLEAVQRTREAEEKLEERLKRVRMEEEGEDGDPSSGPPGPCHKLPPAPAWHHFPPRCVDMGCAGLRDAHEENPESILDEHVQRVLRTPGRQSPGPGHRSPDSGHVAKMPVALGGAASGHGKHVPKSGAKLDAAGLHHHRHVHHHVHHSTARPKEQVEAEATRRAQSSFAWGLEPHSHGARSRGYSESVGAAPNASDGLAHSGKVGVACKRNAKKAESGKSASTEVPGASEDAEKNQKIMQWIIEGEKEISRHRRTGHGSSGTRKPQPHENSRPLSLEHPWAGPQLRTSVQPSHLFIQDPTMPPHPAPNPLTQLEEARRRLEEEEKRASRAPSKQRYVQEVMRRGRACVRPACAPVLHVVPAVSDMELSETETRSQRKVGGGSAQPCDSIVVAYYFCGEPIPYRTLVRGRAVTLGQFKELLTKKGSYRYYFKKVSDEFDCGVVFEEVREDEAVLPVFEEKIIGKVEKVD
UniProt P49841: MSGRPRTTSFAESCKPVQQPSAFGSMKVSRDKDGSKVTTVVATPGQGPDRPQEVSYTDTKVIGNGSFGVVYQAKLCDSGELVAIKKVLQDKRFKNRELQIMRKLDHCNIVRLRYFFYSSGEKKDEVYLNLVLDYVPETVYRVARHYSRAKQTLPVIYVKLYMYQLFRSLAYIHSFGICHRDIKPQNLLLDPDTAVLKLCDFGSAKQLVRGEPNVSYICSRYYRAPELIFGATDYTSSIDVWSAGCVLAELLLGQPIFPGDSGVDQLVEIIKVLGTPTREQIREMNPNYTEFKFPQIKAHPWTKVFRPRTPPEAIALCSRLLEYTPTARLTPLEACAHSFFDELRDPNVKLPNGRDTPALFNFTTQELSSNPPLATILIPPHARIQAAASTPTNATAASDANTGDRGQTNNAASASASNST

Columns and labels:
[1] = target: Ubiquitin-conjugating enzyme E2 N (UBE2N) (human (in lysates of the paper's human cell lines; line not stated)) (UniProt P61088); experiment: co-IP; whole lysates in IP buffer, pre-cleaned with protein A/G-agarose; anti-UBE2N or anti-Axin1 antibody (control IgG) with protein A/G beads at 4 °C overnight; washed five times with IP lysis buffer; Western blot; cell line not stated
[2] = target: Axin1 (human (in lysates of the paper's human cell lines; line not stated)) (UniProt O15169); experiment: as above

binding [1]	binding [2]	Substance
binds	–	Axin1 (from UniProt O15169 1-862)
no binding	–	GSK-3β (from UniProt P49841 1-420) (enzyme)
–	binds	Ubiquitin-conjugating enzyme E2 N (UBE2N) (from UniProt P61088 1-152)
